Assay results as given in paper PMC4256260.
No constants are given. Whether binding was seen depends on the method and setting. Binding seen in cells or lysates may run through a third protein. Here binding means that the protein was enriched with, or labelled near, the bait; the list need not be complete.

Protein sequences, listed by entry. Tags and fused reporters are not part of them.
UniProt P69566: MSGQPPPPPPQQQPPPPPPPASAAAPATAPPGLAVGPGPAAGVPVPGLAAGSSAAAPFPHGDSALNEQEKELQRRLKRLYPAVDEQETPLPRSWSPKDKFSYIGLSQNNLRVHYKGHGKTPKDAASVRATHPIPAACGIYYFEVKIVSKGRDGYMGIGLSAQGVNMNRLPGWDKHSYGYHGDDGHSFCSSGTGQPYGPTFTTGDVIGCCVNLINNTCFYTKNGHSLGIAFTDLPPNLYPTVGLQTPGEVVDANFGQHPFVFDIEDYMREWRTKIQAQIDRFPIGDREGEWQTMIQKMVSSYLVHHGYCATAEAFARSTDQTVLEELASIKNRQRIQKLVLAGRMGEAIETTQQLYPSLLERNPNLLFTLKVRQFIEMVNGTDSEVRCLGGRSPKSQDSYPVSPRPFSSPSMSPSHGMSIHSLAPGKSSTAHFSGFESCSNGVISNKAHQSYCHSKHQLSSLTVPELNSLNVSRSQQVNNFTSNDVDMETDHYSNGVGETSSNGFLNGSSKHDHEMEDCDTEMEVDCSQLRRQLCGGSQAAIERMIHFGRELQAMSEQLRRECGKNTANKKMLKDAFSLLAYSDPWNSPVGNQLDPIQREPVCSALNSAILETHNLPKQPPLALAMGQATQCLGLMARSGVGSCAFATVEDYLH
UniProt Q62029: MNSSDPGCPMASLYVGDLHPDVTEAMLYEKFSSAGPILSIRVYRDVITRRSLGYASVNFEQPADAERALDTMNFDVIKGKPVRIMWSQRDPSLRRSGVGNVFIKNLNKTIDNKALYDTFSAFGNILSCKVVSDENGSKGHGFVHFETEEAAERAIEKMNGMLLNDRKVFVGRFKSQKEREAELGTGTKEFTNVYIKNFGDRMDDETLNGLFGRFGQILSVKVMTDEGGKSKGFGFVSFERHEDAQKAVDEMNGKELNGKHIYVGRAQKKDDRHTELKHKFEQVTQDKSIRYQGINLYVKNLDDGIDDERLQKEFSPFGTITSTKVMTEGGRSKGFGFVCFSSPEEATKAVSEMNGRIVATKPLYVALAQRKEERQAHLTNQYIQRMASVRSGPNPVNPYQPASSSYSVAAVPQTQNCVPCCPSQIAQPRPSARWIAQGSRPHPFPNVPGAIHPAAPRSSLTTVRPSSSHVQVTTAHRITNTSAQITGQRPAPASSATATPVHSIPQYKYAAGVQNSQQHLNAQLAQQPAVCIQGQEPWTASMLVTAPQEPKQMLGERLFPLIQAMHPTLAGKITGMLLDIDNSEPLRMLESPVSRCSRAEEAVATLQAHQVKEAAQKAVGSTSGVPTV

B1: splicing factor SF3B3 (protein, UniProt Q921M3 1-1217)
chain: MFLYNLTLQRATGISFAIHGNFSGTKQQEIVVSRGKILELLRPDPNTGKVHTLLTVEVFGVIRSLMAFRLTGGTKDYIVVGSDSGRIVILEYQPSKNMFEKIHQETFGKSGCRRIVPGQFLAVDPKGRAVMISAIEKQKLVYILNRDAAARLTISSPLEAHKANTLVYHVVGVDVGFENPMFACLEMDYEEADNDPTGEAAANTQQTLTFYELDLGLNHVVRKYSEPLEEHGNFLITVPGGSDGPSGVLICSENYITYKNFGDQPDIRCPIPRRRNDLDDPERGMIFVCSATHKTKSMFFFLAQTEQGDIFKITLETDEDMVTEIRLKYFDTVPVAAAMCVLKTGFLFVASEFGNHYLYQIAHLGDDDEEPEFSSAMPLEEGDTFFFQPRPLKNLVLVDELDSLSPILFCQIADLANEDTPQLYVACGRGPRSSLRVLRHGLEVSEMAVSELPGNPNAVWTVRRHIEDEFDAYIIVSFVNATLVLSIGETVEEVTDSGFLGTTPTLSCSLLGDDALVQVYPDGIRHIRADKRVNEWKTPGKKTIVKCAVNQRQVVIALTGGELVYFEMDPSGQLNEYTERKEMSADVVCMSLANVPPGEQRSRFLAVGLVDNTVRIISLDPSDCLQPLSMQALPAQPESLCIVEMGGTEKQDELGERGSIGFLYLNIGLQNGVLLRTVLDPVTGDLSDTRTRYLGSRPVKLFRVRMQGQEAVLAMSSRSWLSYSYQSRFHLTPLSYETLEFASGFASEQCPEGIVAISTNTLRILALEKLGAVFNQVAFPLQYTPRKFVIHPESNNLIIIETDHNAYTEATKAQRKQQMAEEMVEAAGEDERELAAEMAAAFLNENLPESIFGAPKAGNGQWASVIRVMNPIQGNTLDLVQLEQNEAAFSVAVCRFSNTGEDWYVLVGVAKDLILSPRSVAGGFVYTYKLVNNGEKLEFLHKTPVEEVPAAIAPFQGRVLIGVGKLLRVYDLGKKKLLRKCENKHIANYISGIQTIGHRVIVSDVQESFIWVRYKRNENQLIIFADDTYPRWVTTASLLDYDTVAGADKFGNICVVRLPPNTNDEVDEDPTGNKALWDRGLLNGASQKAEVIMNYHVGETVLSLQKTTLIPGGSESLVYTTLSGGIGILVPFTSHEDHDFFQHVEMHLRSEHPPLCGRDHLSFRSYYFPVKNVIDGDLCEQFNSMEPNKQKNVSEELDRTPPEVSKKLEDIRTRYAF

Target: RAN-binding protein 9 (RANBP9) (mouse (endogenous in testis)) (UniProt P69566)
Assay: affinity purification with mass spectrometry; mouse monoclonal anti-RANBP9 antibody (or IgG control) on protein G Dynabeads, incubated with pre-cleared P30 mouse testis lysate (TNIP buffer: 20 mM Tris-HCl pH 7.5, 200 mM NaCl, 2.5 mM MgCl2, 0.5% NP-40, 1% Triton X-100, 1 mM DTT) overnight at 4°C; four washes with NT2 buffer; bands unique to the RANBP9 IP excised for MS; three biological replicates

Molecule | binding
poly(A) binding protein PABPC2 (from UniProt Q62029 1-628) | binds
B1 | binds
